# ± gives the standard deviation of the averaged measurements. The list shows a part of the results.
# Chains of the proteins cited; added tags and fusions are not shown. Lines headed by an entry give the natural chain unless they say otherwise; changes in a name come on top.
# UniProt Q2KHR2: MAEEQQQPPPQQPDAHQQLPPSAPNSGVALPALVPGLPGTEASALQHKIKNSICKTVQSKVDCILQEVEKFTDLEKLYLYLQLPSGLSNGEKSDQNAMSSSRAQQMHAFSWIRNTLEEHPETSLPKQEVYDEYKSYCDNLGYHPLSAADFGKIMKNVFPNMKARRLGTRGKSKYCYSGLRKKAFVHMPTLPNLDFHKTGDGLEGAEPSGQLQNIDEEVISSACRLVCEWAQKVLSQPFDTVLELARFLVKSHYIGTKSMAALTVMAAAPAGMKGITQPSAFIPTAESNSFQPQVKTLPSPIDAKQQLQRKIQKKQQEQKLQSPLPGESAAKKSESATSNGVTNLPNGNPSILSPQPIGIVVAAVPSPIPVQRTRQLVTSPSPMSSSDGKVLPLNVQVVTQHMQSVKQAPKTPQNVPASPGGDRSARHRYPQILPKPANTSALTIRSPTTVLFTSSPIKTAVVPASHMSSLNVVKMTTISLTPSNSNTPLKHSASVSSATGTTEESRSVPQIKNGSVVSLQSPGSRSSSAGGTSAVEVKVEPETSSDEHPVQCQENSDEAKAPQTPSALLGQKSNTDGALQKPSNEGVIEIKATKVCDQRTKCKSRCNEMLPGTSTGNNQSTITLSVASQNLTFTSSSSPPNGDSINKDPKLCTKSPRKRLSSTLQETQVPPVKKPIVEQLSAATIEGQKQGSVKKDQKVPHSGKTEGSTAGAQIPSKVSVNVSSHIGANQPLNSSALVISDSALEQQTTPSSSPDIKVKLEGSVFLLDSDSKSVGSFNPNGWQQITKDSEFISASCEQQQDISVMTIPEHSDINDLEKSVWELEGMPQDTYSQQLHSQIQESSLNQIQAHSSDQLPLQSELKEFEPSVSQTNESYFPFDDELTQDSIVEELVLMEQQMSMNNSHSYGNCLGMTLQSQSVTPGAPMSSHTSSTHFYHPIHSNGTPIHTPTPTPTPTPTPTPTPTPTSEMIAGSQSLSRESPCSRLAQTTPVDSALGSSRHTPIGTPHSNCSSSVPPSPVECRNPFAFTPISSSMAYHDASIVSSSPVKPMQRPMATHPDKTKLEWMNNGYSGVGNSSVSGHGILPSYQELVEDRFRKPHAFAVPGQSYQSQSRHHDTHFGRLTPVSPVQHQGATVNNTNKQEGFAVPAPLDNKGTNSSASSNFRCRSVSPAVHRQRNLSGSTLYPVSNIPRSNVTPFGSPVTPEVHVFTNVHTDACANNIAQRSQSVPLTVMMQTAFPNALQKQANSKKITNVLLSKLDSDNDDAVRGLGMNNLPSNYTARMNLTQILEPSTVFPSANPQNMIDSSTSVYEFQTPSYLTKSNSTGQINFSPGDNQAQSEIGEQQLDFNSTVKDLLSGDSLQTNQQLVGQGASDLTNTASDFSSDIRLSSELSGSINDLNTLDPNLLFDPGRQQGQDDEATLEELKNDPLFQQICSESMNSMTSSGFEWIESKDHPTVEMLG
# UniProt P60510: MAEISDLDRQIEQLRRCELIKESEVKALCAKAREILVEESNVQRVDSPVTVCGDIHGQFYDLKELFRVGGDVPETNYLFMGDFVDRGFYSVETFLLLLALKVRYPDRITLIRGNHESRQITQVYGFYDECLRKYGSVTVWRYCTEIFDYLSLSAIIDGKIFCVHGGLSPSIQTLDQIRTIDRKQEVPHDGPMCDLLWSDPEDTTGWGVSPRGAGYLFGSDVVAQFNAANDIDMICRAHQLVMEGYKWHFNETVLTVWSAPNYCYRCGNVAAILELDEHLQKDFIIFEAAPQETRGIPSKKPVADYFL
# UniProt Q6UW68: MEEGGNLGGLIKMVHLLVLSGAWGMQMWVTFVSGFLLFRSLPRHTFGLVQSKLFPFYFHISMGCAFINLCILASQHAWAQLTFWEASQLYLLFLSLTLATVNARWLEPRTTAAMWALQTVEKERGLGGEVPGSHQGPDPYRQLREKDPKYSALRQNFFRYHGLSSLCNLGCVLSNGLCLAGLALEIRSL
# UniProt Q8NB78: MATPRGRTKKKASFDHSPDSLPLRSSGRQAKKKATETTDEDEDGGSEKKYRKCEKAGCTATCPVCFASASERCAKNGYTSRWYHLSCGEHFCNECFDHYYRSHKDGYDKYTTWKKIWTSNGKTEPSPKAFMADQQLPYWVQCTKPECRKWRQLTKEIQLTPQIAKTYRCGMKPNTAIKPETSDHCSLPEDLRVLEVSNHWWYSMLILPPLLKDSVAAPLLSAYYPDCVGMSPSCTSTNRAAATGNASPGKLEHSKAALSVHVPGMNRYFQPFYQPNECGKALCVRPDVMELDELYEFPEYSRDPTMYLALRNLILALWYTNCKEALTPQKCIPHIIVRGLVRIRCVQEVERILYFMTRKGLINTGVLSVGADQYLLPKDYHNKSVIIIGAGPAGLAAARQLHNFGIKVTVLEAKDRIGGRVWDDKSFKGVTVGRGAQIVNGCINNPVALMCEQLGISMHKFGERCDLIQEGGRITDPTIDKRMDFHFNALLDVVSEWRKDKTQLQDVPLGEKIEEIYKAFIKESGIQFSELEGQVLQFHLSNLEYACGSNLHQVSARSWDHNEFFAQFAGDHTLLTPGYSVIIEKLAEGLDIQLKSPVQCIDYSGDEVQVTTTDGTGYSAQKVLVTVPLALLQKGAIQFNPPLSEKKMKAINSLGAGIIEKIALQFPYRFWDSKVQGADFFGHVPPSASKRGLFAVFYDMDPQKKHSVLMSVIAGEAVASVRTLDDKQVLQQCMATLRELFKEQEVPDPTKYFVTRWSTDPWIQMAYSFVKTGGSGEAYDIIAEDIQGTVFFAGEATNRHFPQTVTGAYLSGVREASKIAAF
# UniProt Q969U7: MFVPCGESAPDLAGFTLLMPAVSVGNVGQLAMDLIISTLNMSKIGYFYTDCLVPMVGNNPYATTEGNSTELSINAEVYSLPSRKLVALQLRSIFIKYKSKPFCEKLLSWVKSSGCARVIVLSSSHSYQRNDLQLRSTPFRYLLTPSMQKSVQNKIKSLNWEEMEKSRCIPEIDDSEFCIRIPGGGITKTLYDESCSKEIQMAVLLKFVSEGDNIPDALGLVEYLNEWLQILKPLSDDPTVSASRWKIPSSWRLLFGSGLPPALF
# UniProt Q9BTD8: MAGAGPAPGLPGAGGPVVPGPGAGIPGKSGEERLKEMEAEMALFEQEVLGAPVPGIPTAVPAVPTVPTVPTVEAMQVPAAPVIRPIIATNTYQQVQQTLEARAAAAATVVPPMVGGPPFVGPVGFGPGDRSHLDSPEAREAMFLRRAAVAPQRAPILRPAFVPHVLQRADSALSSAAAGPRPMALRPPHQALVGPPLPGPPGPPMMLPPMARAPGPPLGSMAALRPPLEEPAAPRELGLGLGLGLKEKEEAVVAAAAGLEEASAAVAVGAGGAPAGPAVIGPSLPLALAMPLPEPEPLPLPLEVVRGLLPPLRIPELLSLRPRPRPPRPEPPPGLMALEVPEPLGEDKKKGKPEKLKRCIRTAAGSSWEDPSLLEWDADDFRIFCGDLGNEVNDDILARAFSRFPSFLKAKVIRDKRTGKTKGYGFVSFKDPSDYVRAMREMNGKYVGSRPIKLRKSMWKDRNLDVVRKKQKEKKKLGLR
# UniProt Q99708: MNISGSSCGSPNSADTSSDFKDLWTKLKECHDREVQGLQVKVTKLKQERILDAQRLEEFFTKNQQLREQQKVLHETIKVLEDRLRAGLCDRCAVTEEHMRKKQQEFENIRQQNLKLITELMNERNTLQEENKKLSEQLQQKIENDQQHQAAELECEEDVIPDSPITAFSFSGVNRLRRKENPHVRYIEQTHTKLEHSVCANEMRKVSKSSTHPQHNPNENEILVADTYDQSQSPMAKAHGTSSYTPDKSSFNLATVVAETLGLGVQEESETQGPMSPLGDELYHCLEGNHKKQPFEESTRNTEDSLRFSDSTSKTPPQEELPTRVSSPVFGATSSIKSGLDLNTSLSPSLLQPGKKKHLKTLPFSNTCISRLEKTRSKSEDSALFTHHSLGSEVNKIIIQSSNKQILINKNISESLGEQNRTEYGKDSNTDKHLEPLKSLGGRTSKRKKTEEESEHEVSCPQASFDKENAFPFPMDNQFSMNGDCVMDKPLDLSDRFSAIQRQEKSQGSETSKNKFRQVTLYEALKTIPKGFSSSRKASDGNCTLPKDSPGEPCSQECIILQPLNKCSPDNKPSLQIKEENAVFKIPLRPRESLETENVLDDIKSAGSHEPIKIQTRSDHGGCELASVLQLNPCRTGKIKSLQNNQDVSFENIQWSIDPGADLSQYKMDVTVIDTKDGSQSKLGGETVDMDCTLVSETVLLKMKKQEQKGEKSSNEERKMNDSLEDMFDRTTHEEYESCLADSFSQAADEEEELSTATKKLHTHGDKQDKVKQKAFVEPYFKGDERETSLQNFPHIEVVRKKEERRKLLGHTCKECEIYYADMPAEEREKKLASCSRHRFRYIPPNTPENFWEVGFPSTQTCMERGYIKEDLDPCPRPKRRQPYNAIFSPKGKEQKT
# UniProt Q13227: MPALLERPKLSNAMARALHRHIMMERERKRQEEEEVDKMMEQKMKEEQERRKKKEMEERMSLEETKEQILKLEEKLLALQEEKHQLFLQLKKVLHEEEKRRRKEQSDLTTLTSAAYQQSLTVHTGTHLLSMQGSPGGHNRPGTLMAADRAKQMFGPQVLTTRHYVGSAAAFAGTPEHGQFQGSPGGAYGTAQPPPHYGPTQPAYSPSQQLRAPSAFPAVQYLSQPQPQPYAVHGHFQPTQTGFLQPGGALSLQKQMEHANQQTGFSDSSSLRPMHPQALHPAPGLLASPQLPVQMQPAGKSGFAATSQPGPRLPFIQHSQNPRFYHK
# UniProt Q9BXS5: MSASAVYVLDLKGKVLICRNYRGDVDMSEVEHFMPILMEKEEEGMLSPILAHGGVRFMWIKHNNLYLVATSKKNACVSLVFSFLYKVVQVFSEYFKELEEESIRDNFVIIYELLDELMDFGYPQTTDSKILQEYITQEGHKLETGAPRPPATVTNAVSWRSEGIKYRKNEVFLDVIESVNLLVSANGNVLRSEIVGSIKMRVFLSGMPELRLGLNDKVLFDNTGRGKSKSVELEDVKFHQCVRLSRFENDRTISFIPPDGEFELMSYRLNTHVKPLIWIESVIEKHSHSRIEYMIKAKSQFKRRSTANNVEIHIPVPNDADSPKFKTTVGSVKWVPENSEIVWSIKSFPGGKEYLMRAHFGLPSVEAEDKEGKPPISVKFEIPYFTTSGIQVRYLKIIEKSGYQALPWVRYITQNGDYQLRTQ
# UniProt P31321, whole entry: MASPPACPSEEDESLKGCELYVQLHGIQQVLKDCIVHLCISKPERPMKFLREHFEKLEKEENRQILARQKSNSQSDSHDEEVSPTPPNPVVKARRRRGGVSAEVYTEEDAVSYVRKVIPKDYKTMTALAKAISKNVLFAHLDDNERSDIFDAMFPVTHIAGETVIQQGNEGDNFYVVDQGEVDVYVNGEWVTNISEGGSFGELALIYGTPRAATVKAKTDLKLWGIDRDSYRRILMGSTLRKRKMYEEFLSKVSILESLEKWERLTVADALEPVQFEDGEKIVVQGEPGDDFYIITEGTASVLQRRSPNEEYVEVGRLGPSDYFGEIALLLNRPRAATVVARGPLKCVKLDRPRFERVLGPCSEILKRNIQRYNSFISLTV
# UniProt Q9NPR2: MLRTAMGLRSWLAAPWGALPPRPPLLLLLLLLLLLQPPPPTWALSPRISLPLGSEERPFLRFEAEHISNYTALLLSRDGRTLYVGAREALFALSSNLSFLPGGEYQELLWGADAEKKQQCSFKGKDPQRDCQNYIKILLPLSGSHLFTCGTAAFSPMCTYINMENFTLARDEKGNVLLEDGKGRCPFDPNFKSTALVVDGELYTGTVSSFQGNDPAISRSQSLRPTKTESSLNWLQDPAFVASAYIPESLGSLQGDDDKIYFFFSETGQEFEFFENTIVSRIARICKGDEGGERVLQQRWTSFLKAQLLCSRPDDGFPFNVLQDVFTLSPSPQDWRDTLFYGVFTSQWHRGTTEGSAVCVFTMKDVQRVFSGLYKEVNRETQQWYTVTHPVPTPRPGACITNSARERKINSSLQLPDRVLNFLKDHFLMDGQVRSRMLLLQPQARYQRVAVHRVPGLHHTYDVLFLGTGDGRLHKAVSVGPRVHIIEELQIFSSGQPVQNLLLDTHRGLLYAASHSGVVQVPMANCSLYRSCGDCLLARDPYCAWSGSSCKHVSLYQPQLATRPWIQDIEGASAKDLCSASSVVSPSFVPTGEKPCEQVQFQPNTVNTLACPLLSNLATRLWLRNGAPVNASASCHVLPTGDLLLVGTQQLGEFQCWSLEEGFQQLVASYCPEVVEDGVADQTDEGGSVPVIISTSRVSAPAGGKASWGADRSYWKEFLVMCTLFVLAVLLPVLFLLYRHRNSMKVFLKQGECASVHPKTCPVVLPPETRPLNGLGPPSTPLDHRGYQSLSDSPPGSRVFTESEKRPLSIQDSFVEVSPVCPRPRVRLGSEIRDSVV
# Compound: Nc1nc2c(ncn2[C@@H]2O[C@H](COP(=O)(O)OP(=O)(O)OP(=O)(O)O)[C@@H](O)[C@H]2O)c(=O)[nH]1 [guanosine triphosphate]
# Test: NP40-soluble protein abundance relative to vehicle (solubility fold change) (ratio); higher = more soluble protein in presence of GTP
# In short: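 Values are fold changes against the detergent-processed vehicle, based on vsn-normalised intensities. Jurkat crude lysate was treated at eight concentrations from 0.1 to 10 mM (10 min at room temperature, then 3 min at 37 °C), solubilised with 0.8% NP40 and benzonase, ultracentrifuged and analysed by TMT-labelled LC-MS/MS over three independent experiments.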
Target,NP40-soluble protein abundance (concentration: 0.1mM),NP40-soluble protein abundance (concentration: 0.5mM),NP40-soluble protein abundance (concentration: 1mM),NP40-soluble protein abundance (concentration: 2mM),NP40-soluble protein abundance (concentration: 4mM),NP40-soluble protein abundance (concentration: 6mM),NP40-soluble protein abundance (concentration: 8mM),NP40-soluble protein abundance (concentration: 10mM)
H0YHA7 and related entries (UniProt Q07020),1 ± 0.045,1.03 ± 0.058,1.06 ± 0.14,1.01 ± 0.19,0.906 ± 0.2,0.811 ± 0.19,0.637 ± 0.096,0.839 ± 0.2
H0YLX2 and related entries (UniProt Q2KHR2),1.03 ± 0.064,1.03 ± 0.045,1.03 ± 0.087,1.03 ± 0.063,1.04 ± 0.077,1.06 ± 0.05,1.1 ± 0.052,1.05 ± 0.054
H3BTA2 and related entries (UniProt P60510),1.05 ± 0.079,1.05 ± 0.14,0.988 ± 0.04,1.03 ± 0.1,1.07 ± 0.11,0.996 ± 0.1,0.965 ± 0.017,0.92 ± 0.011
I3L3P7 and related entries (UniProt P62244),1.09 ± 0.15,1.03 ± 0.18,1.11 ± 0.34,1.05 ± 0.32,0.895 ± 0.3,0.818 ± 0.28,0.62 ± 0.19,0.767 ± 0.29
K7ELQ9 and related entries (UniProt Q6UW68),1.05 ± 0.099,1 ± 0.21,0.936 ± 0.07,0.896 ± 0.16,0.9 ± 0.11,0.888 ± 0.078,0.904 ± 0.19,0.876 ± 0.13
H0Y6H0 and related entries (UniProt Q8NB78),1.04 ± 0.05,1.11 ± 0.052,1.03 ± 0.039,0.941 ± 0.091,1.01 ± 0.067,1.08 ± 0.076,1.05 ± 0.095,1.01 ± 0.23
K7ENR6 and related entries (UniProt Q969U7),1 ± 0.083,1.01 ± 0.056,1.02 ± 0.06,0.984 ± 0.053,0.974 ± 0.034,1 ± 0.033,0.973 ± 0.092,0.946 ± 0.042
K7EP90 and related entries (UniProt Q9BTD8),1.03 ± 0.096,1.03 ± 0.061,1.12 ± 0.11,1.17 ± 0.11,1.17 ± 0.14,1.16 ± 0.1,1.15 ± 0.12,1.21 ± 0.13
I6L8A6 and related entries (UniProt Q99708),1.05 ± 0.019,1.03 ± 0.051,1.059 ± 0.0025,1.04 ± 0.049,1.03 ± 0.052,1.02 ± 0.07,1.03 ± 0.1,1.01 ± 0.049
I3L3Y9 and related entries (UniProt Q13227),0.978 ± 0.059,0.878 ± 0.0093,1.01 ± 0.13,1.01 ± 0.072,1.02 ± 0.11,1.06 ± 0.11,1.03 ± 0.13,1.08 ± 0.14
K7EJL1 and related entries (UniProt Q9BXS5),1.01 ± 0.056,1.05 ± 0.1,0.947 ± 0.034,0.963 ± 0.084,0.938 ± 0.062,0.943 ± 0.073,0.886 ± 0.032,0.882 ± 0.061
H7BYW5 and related entries (UniProt P31321),0.997 ± 0.11,1.06 ± 0.1,1.04 ± 0.066,1.06 ± 0.031,1.09 ± 0.023,1.01 ± 0.045,1.12 ± 0.041,1.014 ± 0.0086
J3KNP4 and related entries (UniProt Q9NPR2),1.02 ± 0.015,0.938 ± 0.038,0.98 ± 0.025,0.966 ± 0.058,0.935 ± 0.063,0.913 ± 0.034,0.982 ± 0.045,0.985 ± 0.035

# An excerpt of these results, with tabs.
Target	NP40-soluble protein abundance (concentration: 0.1mM)	NP40-soluble protein abundance (concentration: 0.5mM)	NP40-soluble protein abundance (concentration: 1mM)	NP40-soluble protein abundance (concentration: 2mM)	NP40-soluble protein abundance (concentration: 4mM)	NP40-soluble protein abundance (concentration: 6mM)	NP40-soluble protein abundance (concentration: 8mM)	NP40-soluble protein abundance (concentration: 10mM)
K7ENR6 and related entries (UniProt Q969U7)	1 ± 0.083	1.01 ± 0.056	1.02 ± 0.06	0.984 ± 0.053	0.974 ± 0.034	1 ± 0.033	0.973 ± 0.092	0.946 ± 0.042
I6L8A6 and related entries (UniProt Q99708)	1.05 ± 0.019	1.03 ± 0.051	1.059 ± 0.0025	1.04 ± 0.049	1.03 ± 0.052	1.02 ± 0.07	1.03 ± 0.1	1.01 ± 0.049

# Reference: the supplement of paper PMC6411743
